Values from PubChem BioAssay AID504774 (Drosophila RNAi Screening Center, 2011)
The deposit covers about 23,000 reagents; shown is a random part of those that have a named target and a result. 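Values are quantile-normalised luminescence on an arbitrary scale; higher means more cells surviving MMS.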 Names joined by + are all predicted targets of the reagent.

Test: 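Knock-downs that shift viability of MMS-exposed cells relative to untreated ones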 (primary screen)
Cells: Drosophila Kc167 cells
Knock-down reagent: long dsRNA against Drosophila genes, about 0.25 µg dsRNA per well
Duration: about 6 days: 3 days knock-down, then 3 days with or without MMS
Conditions: methyl methanesulphonate 0.004% (w/v) for 3 days after knock-down
Measured: 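Viability in wells given MMS, read as ATP luminescence, normalised by quantiles plate by plate and averaged across replicates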
Reading the numbers: mean viability with MMS and viability with MMS: higher = more surviving cells after MMS

gene knocked down,amplicon,mean viability with MMS,"viability with MMS, replicate 1","viability with MMS, replicate 2"
fiz (fezzik),DRSC20188,3.57e6,3.99e6,3.70e6
CG8306,DRSC07141,3.54e6,4.00e6,4.03e6
CG33483,DRSC14019,3.74e6,4.15e6,4.18e6
loj (logjam),DRSC09791,3.60e6,4.18e6,3.98e6
Him (Holes in muscle),DRSC19638,3.49e6,3.95e6,3.95e6
CG42680,DRSC01399,3.77e6,4.05e6,4.36e6
Ptx1,DRSC16804,3.45e6,3.88e6,3.90e6
CG1307,DRSC12492,3.67e6,4.09e6,4.25e6
CtsL4 (Cathepsin L4),DRSC02849,3.69e6,3.99e6,4.36e6
Jon99Ciii (Jonah 99Ciii),DRSC16859,3.28e6,3.63e6,3.67e6
CG10761,DRSC17753,3.60e6,4.12e6,4.04e6
Pgant3 (Polypeptide N-Acetylgalactosaminyltransferase 3),DRSC05942,3.70e6,4.29e6,4.16e6
CG8677,DRSC03107,3.60e6,3.99e6,4.13e6
Decay (Death executioner caspase related to Apopain/Yama),DRSC16930,3.19e6,3.67e6,3.56e6
Afti (Aftiphilin),DRSC16440,3.56e6,4.09e6,4.01e6
CG11095,DRSC19375,3.70e6,4.25e6,4.00e6
CG41099,DRSC21049,3.63e6,4.18e6,3.99e6
CG41099,DRSC21051,3.60e6,4.09e6,4.05e6
rad (retired record),DRSC19687,3.64e6,4.15e6,4.08e6
rad (retired record),DRSC22865,3.36e6,3.90e6,3.84e6
CG3625,DRSC00008,3.68e6,4.14e6,4.19e6
CG3625,DRSC00621,3.51e6,3.92e6,4.01e6
CG4021,DRSC04439,3.60e6,4.10e6,4.08e6
CG17770 + Acam,DRSC14110,3.60e6,4.03e6,4.13e6
CG17770 + Acam,DRSC15264,3.58e6,4.01e6,4.10e6
CG15712,DRSC06583,3.82e6,4.33e6,4.21e6
twz (tiwaz),DRSC04069,3.52e6,4.00e6,3.98e6
T3dh + pgc,DRSC04659,3.67e6,4.30e6,4.02e6
Usp5 (Ubiquitin specific protease 5),DRSC08244,3.52e6,3.98e6,4.00e6
CG32829,DRSC00961,3.33e6,3.81e6,3.75e6
CG32829,DRSC22805,3.22e6,3.83e6,3.74e6
CG12065,DRSC17798,3.64e6,3.96e6,4.46e6
CG12065,DRSC17799,3.52e6,4.01e6,3.99e6
lz (lozenge),DRSC18790,3.73e6,4.17e6,4.25e6
lz (lozenge),DRSC22302,3.45e6,3.98e6,3.88e6
CG31871,DRSC02567,3.34e6,3.76e6,3.74e6
CG31871,DRSC02571,3.31e6,3.73e6,3.69e6
RpL37-1 (Ribosomal protein L37-1),DRSC20149,3.53e6,3.99e6,4.02e6
RpL37-1 (Ribosomal protein L37-1),DRSC21646,2.94e6,3.62e6,3.67e6
CG15098,DRSC06527,3.36e6,3.78e6,3.77e6
mRpL12 (mitochondrial ribosomal protein L12),DRSC10467,3.61e6,4.13e6,4.06e6
Usf,DRSC18129,3.55e6,4.02e6,4.04e6
cass (cassowary),DRSC01850,3.16e6,3.74e6,3.36e6
CG14861,DRSC14984,3.42e6,3.76e6,3.98e6
CG14380,DRSC14840,3.53e6,3.88e6,4.15e6
mRpS7 (mitochondrial ribosomal protein S7),DRSC02814,3.62e6,4.12e6,4.12e6
CG10182,DRSC14202,3.38e6,3.78e6,3.79e6
CG34428,DRSC10119,3.42e6,3.80e6,3.93e6
CG42346,DRSC20622,3.52e6,4.01e6,3.99e6
CG42346,DRSC20644,3.51e6,4.01e6,3.97e6
Obp57a (Odorant-binding protein 57a),DRSC22047,3.79e6,4.20e6,4.26e6
Cec2 (Cecropin 2),DRSC21885,3.60e6,4.03e6,4.10e6
CG3704,DRSC18174,3.58e6,4.10e6,4.03e6
CG3704,DRSC18645,3.62e6,4.13e6,4.08e6
CG6847,DRSC19213,3.55e6,3.92e6,4.11e6
CG6847,DRSC20009,3.58e6,4.05e6,4.07e6
Dbp21E2 (DEAD box protein 21E2),DRSC00616,3.80e6,4.12e6,4.53e6
CG31735,DRSC01518,3.53e6,4.00e6,4.00e6
wkd (whacked),DRSC15777,3.56e6,4.04e6,4.04e6
Fife,DRSC08262,3.22e6,3.68e6,3.77e6
RasGAP1 (Ras GTPase activating protein 1),DRSC11172,3.77e6,4.23e6,4.22e6
heix (heixuedian),DRSC03542,3.46e6,3.65e6,4.17e6
CG4313,DRSC18514,3.63e6,4.05e6,4.16e6
Unc-115a (Uncoordinated 115a),DRSC12749,3.56e6,4.10e6,3.97e6
CG31782 (retired record),DRSC01554,3.59e6,4.02e6,4.09e6
CG31782 (retired record),DRSC01556,3.78e6,4.32e6,4.11e6
HPS1 (Hermansky-Pudlak Syndrome 1),DRSC06195,3.34e6,3.77e6,3.77e6
CG15124,DRSC06546,3.84e6,4.18e6,4.44e6
